Measured values taken from ChEMBL document CHEMBL1250449, “Aminoglycoside activity observed on single pre-translocation ribosome complexes” (Nat Chem Biol, 2010).

Tests used:
Type in all cases: nucleic-acid assay
Conditions in all cases: MRE600
[1] = system: Nucleic Acid; assay: Binding affinity to Escherichia coli 23S rRNA G2553C mutant assessed as increase in classical-state occupancy by tRNA at 20 uM by smFRET
[2] = system: Nucleic Acid; assay: Binding affinity to Escherichia coli 23S rRNA assessed as increase in classical-state occupancy by tRNA at 20 uM by smFRET
[3] = system: Nucleic Acid; assay: Binding affinity to Escherichia coli 16S rRNA helix 44 assessed as tRNA translocation rate
[4] = system: Nucleic Acid; assay: Binding affinity to Escherichia coli 16S rRNA helix 44 assessed as classical-state occupancy by tRNA; parameters: concentration or dose not given beside the values

SMILES: CNC1C(O)C(OC2C(N)CC(N)C(OC3OC(CN)CCC3N)C2O)OCC1(C)O (centres undefined)
- Activity [1]: 18%
- Activity [2]: 5%
- Activity [3]: 0.42 s⁻¹
- Activity [4]: 67.2%
